Measurements reported in PubChem BioAssay AID504804 (Drosophila RNAi Screening Center, 2011)
In all, the deposit lists about 19,000 reagents; below is an unselected part of those that have a named target and a result. Of all reagents, 47 (0.25%) are marked active. 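Signals are raw, not normalised; exact z-scores behind calls not deposited; actives needed confirmation, so some wells reaching 2 SD are inactive.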 Entries without a mark were called inactive. A plus sign joins genes that one reagent is predicted to hit.

Screen: 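Knock-downs shielding fly cells from apoptosis caused by DNA damage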 (primary screen)
Cells: Drosophila Kc cells
Reagents: long dsRNA against Drosophila genes, 0.5 µg dsRNA per well
Duration: 96 h (48 h knock-down, then 48 h drug)
Treatment: doxorubicin 5 µg/ml for 48 h, added 48 h after dsRNA
Measurement: 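Viability measured as cellular ATP by luminescence after 48 h knock-down then 48 h doxorubicin at 5 µg/ml; unnormalised plate counts for each replicate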
Direction: raw ATP luminescence: higher = more viable cells, protection from doxorubicin
Rule for the call: 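Active when both duplicate wells lie at least 2 SD above the plate mean and protection is confirmed by rescreening and independent dsRNAs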

no.	gene	amplicon	SD above plate mean	raw ATP luminescence, replicate 1	raw ATP luminescence, replicate 2
1	Ae2 (GeneID 39147)	DRSC08997		1.59e5	1.76e5
2	Ae2 (GeneID 39147)	DRSC10969		46200	47963
3	pum (GeneID 41094)	DRSC12722		74273	54850
4	pum (GeneID 41094)	DRSC12726		46427	88413
5	pum (GeneID 41094)	DRSC17037		61820	59673
6	pum (GeneID 41094)	DRSC17038		67120	53317
7	nvy (GeneID 37886)	DRSC04705		59407	63827
8	NaCP60E (GeneID 37981)	DRSC04307		87717	71260
9	CG17028 (GeneID 39741)	DRSC10239		98333	73310
10	CG12985 (GeneID 32774)	DRSC19505		4.15e5	3.44e5
11	CG32812 (GeneID 31074)	DRSC18478		62260	58900
12	Slmap (GeneID 3355127)	DRSC03799		62870	51083
13	Bre1 (GeneID 38652)	DRSC09742		54483	73660
14	CG2871 (GeneID 31411)	DRSC18230		40480	41190
15	tna (GeneID 39217)	DRSC09053		1.39e5	1.61e5
16	tna (GeneID 39217)	DRSC10937		67903	67943
17	CG3764 (GeneID 39902)	DRSC10375		19377	18267
18	BEAF-32 (GeneID 36645)	DRSC05927		51787	49893
19	Nup133 (GeneID 42680)	DRSC16150		33987	45543
20	CG13671 (GeneID 38932)	DRSC10030		29860	33070
21	pall (GeneID 39104)	DRSC10364		37620	43100
22	TBC1D5 (GeneID 41628)	DRSC16421		34010	23270
23	CG4860 (GeneID 41480)	DRSC15664		46327	28280
24	Nup54 (GeneID 36360)	DRSC07282		69760	62433
25	mRpL15 (GeneID 40261)	DRSC11771		23437	23750
26	orb2 (GeneID 39018)	DRSC10540		51260	43573
27	orb2 (GeneID 39018)	DRSC10541		72727	78847
28	orb2 (GeneID 39018)	DRSC10542		39697	38210
29	CG34196 (GeneID 5740437)	DRSC05704		96263	82543
30	Snx3 (GeneID 41551)	DRSC16027		44197	58960
31	CG30432 (GeneID 246611)	DRSC04833		86667	91763
32	CG12341 (GeneID 36137)	DRSC06133		28887	78820
33	VhaAC39-2 (GeneID 42739)	DRSC15609		77260	82730
34	Btk (GeneID 34132)	DRSC02008		47727	75950
35	Btk (GeneID 34132)	DRSC02666		1.09e5	70807
36	mlt (GeneID 36072)	DRSC06120		56257	55000
37	Drl-2 (GeneID 36436)	DRSC05393		65090	76053
38	CG12826 (GeneID 35710)	DRSC06175		49053	78267
39	Sirt1 (GeneID 34708)	DRSC03435		66427	47320
40	CG14126 (retired record) (GeneID 39350)	DRSC10130		89653	66893
41	spaw (GeneID 246568)	DRSC06824		65513	66750
42	Or85c (GeneID 41008)	DRSC16766		61263	56733
43	CG13502 (GeneID 37518)	DRSC04147		56637	49307
44	Nepl6 (GeneID 33893)	DRSC03242		1.59e5	1.98e5
45	CG9514 (GeneID 32418)	DRSC20190		3.27e5	3.01e5
46	CG9514 (GeneID 32418)	DRSC20191		3.01e5	3.03e5
47	unc80 (GeneID 43324)	DRSC15329		36240	43470
48	CG33308 (GeneID 2768925)	DRSC01419		2.94e5	2.49e5
49	Adk1 (GeneID 41476)	DRSC15514		44767	49940
50	CG34327 (GeneID 5740714)	DRSC19517		2.58e5	2.65e5
51	CG4830 (GeneID 41477)	DRSC15657		54260	53753
52	croc (GeneID 40374)	DRSC11884		69427	63477
53	CG4615 (GeneID 31656)	DRSC17491		2.30e5	2.18e5
54	Pp4-19C (GeneID 45031)	DRSC20559		4.26e5	2.90e5
55	Pp4-19C (GeneID 45031)	DRSC21251		2.94e5	3.10e5
56	CG30116 (GeneID 37126)	DRSC05935		64217	57227
57	Fmo-2 (GeneID 35561)	DRSC04983		59013	55570
58	CG6567 + CG4565	DRSC15599		64013	52060
59	ATPsynCF6 (GeneID 42759)	DRSC14092		65290	52090
60	exu (GeneID 37345)	DRSC07615		60407	55363
61	pirk (GeneID 37468)	DRSC04269		69190	69793
62	Hsp60D (GeneID 34763)	DRSC02543		70897	82417
63	CG3776 (GeneID 37996)	DRSC04417		33443	35870
64	CG14805 (GeneID 31146)	DRSC18554		70900	59080
65	loaf (GeneID 39325)	DRSC09130		1.77e5	1.92e5
66	Swim (GeneID 37537)	DRSC04334		61743	61380
67	ND-20L (GeneID 43477)	DRSC15414		67630	47780
68	cib (GeneID 31359)	DRSC18660		38240	37220
69	asl (GeneID 40682)	DRSC12319		45033	14650
70	CG3402 (GeneID 38077)	DRSC08567		65270	69017
71	CG4374 (GeneID 42767)	DRSC15570		66490	55880
72	nompC (GeneID 33768)	DRSC03581		30307	34400
73	CG14853 (GeneID 41771)	DRSC14977		90690	83010
74	CG13131 (GeneID 34334)	DRSC02227		31457	53343
75	Pax (GeneID 35215)	DRSC01703		3.16e5	2.51e5
76	Pax (GeneID 35215)	DRSC02651	2 to 3 SD above plate mean (active)	1.41e5	1.19e5
77	Pax (GeneID 35215)	DRSC02652		66777	65597
78	laf (GeneID 40606)	DRSC12246		54410	56377
79	dbe (GeneID 33269)	DRSC00811		1.06e5	58873
80	tal-1A + tal-2A + tal-AA + 1 more	DRSC12992		2.06e5	1.92e5
81	Miox (GeneID 39391)	DRSC10747		76090	76753
82	Pdk (GeneID 35970)	DRSC07504		69327	71507
83	CG12659 (GeneID 50403)	DRSC17862		53190	59690
84	Pex16 (GeneID 40293)	DRSC11750		37210	33363
85	Esyt2 (GeneID 42929)	DRSC16082		33040	34607
86	Uck (GeneID 42894)	DRSC13661		1.26e5	2.37e5
87	Uck (GeneID 42894)	DRSC16028		53890	67130
88	Taf11 (GeneID 34293)	DRSC03448		38077	71317
89	Nlg2 (GeneID 33962)	DRSC03578		37480	42467
90	mtrm (GeneID 38958)	DRSC10322		27607	23483
91	Sgs7 (GeneID 47198)	DRSC11281		62940	62140
92	COX3 (retired record) (GeneID 192471)	DRSC21279		3.07e5	2.92e5
93	CG8141 (GeneID 41622)	DRSC16387		76050	57440
94	Nmnat (GeneID 42987)	DRSC14644		50790	50450
95	CG15414 (GeneID 33570)	DRSC00429		22380	23793
96	CG3942 (GeneID 41489)	DRSC15525		61627	51603
97	CG13564 (GeneID 37855)	DRSC04201		46763	45663
98	CG14100 (GeneID 40132)	DRSC10101		65723	59973
99	gny (GeneID 34409)	DRSC02810		89247	56063
100	cocoon (GeneID 39665)	DRSC10916		41570	29437
101	AANATL2 (GeneID 33874)	DRSC03227		21800	20557
102	CG13613 (GeneID 42910)	DRSC14616		73870	87250
103	Cdc16 (GeneID 42753)	DRSC16920		64060	69120
104	msopa (GeneID 45962)	DRSC11895		30180	30467
105	Cyp6a19 (GeneID 36662)	DRSC07379		70920	66143
106	CG14860 (GeneID 41803)	DRSC14983		84900	90130
107	mol (GeneID 34872)	DRSC01431		2.49e5	2.08e5
108	mol (GeneID 34872)	DRSC01912		74683	66787
109	mol (GeneID 34872)	DRSC02479		62283	64027

7 of these entries, reformatted:
Pdk (GeneID 35970) [DRSC07504]: raw ATP luminescence, replicate 1 = 69327; raw ATP luminescence, replicate 2 = 71507
CG12659 (GeneID 50403) [DRSC17862]: raw ATP luminescence, replicate 1 = 53190; raw ATP luminescence, replicate 2 = 59690
Pex16 (GeneID 40293) [DRSC11750]: raw ATP luminescence, replicate 1 = 37210; raw ATP luminescence, replicate 2 = 33363
Esyt2 (GeneID 42929) [DRSC16082]: raw ATP luminescence, replicate 1 = 33040; raw ATP luminescence, replicate 2 = 34607
Uck (GeneID 42894) [DRSC13661]: raw ATP luminescence, replicate 1 = 1.26e5; raw ATP luminescence, replicate 2 = 2.37e5
Uck (GeneID 42894) [DRSC16028]: raw ATP luminescence, replicate 1 = 53890; raw ATP luminescence, replicate 2 = 67130
Taf11 (GeneID 34293) [DRSC03448]: raw ATP luminescence, replicate 1 = 38077; raw ATP luminescence, replicate 2 = 71317
